Source: the supplement of paper PMC5949888
Most values lie at the floor of the assay. Slopes are relative: functional sequences can read slightly below zero.

What follows are substances tested on Saccharomyces cerevisiae PS128 hsf1 delta, HSF1(1-493) fusion (assay: growth estimate (transactivation domain function in HSF1 fusion, heat-shock survival) (a.u. (slope of normalised read count over time)); higher = stronger growth at 37°C, i.e. more transactivation activity). Details: library: random library.

Substance	growth estimate
RQRCLLQKLCV	-0.246
RQRGI	< -0.25
RQRPLYRYRPQCSR	< -0.25
RQRR	< -0.25
RQRRSIVTQS	< -0.25
RQRVGDNLP	< -0.25
RQS	< -0.25
RQSGPLGKRARTFSFMPVPL	0.0057
RQSGYVERFPPSFPGETSGA	< -0.25
RQSLGRTNLVASDWSEAMNR	< -0.25
RQSRDDMQIFIVDPRRHRFV	< -0.25
RQTDNNRGTRQKL	< -0.25
RQTEIE	< -0.25
RQTIIIS	< -0.25
RQTLLSHNLISEEVGMTPMT	< -0.25
RQVQTSQECKAIACFM	< -0.25
RQVRLDKDGSPFVIAAVIIR	< -0.25
RQVSLDGESTIERFPWL	< -0.25
RQWAA	< -0.25
RRAAMVVTCRASVKPGLVSS	< -0.25
RRACQTRY	< -0.25
RRAILHRYGVR	< -0.25
RRARLWLGRGTYSRVARRGF	< -0.25
RRATTQGASPHLGSVPYGCR	< -0.25
RRCGSDNFSLVKTQPMVSAR	< -0.25

Substance	growth estimate
RRCMPRRN	-0.246
RRCSSLRTWSGVSRD	< -0.25
RRDK	< -0.25
RRDRLLRDAGQLGYTRLEVL	< -0.25
RRE	< -0.25
RREPDV	-0.246
RREQTGTYLASFARQPGHLG	< -0.25
RRERWVGQLRQYMYAGACGR	< -0.25
RRGRFFEPPECV	< -0.25
RRGSQGVPPWSYDRPCTFGN	< -0.25
RRGYPRHFIGFVQTSAVRNE	< -0.25
RRHGTHCFRESFADSPRFAK	< -0.25
RRHHCKPDGLAVGFISTDFV	< -0.25
RRHRGVYLFE	< -0.25
RRHVYRLG	< -0.25
RRIKLAQRIPGGYPGASCSA	< -0.25
RRISVVEIGGGRGVEYTREH	< -0.25
RRIVH	< -0.25
RRIVSVAATRGWAMLGPSRI	< -0.25
RRKR	< -0.25
RRKRSVKGILNRLQRSTSGN	< -0.25
RRL	< -0.25
RRLLKVLT	< -0.25
RRLNGPHTVLRRAKGRLLLA	< -0.25
RRLPALMAIPFTSAEAGPVS	< -0.25

Substance	growth estimate
RRLPLIRKAE	< -0.25
RRLRRSSPRVVYQFSQQEGT	< -0.25
RRLTGGAAEVRIAGRNGDPV	< -0.25
RRMGRYRGVDTRRQSYSNTV	< -0.25
RRMSNLELRDVMEQK	< -0.25
RRNKAEGGVRDYLRALGLTV	< -0.25
RRNTAAGDRFDRGFAPHIVQ	< -0.25
RRPAGKVPLQKLTKHQVSPS	< -0.25
RRPHPLATNSWIAYSGVPAP	< -0.25
RRPLRFPPDGMSAS	< -0.25
RRPSGGTIRHSDAGHMGSYV	< -0.25
RRPYDPSYVVVSI	< -0.25
RRQCLRLAVGVFSKSLTGSI	< -0.25
RRQVILVVPEKDNEDNESL	< -0.25
RRRA	< -0.25
RRRCRA	< -0.25
RRRERIGRTP	< -0.25
RRREVGRQPLEFCHNLRCRS	< -0.25
RRRGHYIEYACRGKRRIATA	< -0.25
RRRLRRMQLIYGPWSPRC	< -0.25
RRRPSTSRRGGARASYADGP	< -0.25
RRRSRREGRYALFASNTSKF	-0.198
RRRSVEHPLR	< -0.25
RRRVPAD	< -0.25
RRSACLPLFTRPVTRFGDL	< -0.25

Substance	growth estimate
RRSDFVKVMVSRC	< -0.25
RRSHTRCLYLVSELWMDRAS	< -0.25
RRSINWVQGEA	< -0.25
RRSIQWVSA	< -0.25
RRSKCC	< -0.25
RRSKFLFLLSSTTAYALVAR	< -0.25
RRSKQTITIVVRNWNFLLNV	< -0.25
RRSLQPAARDAHCSYSQVFA	< -0.25
RRSPGLVSRIGNATSGVVQR	< -0.25
RRSPKCARLD	< -0.25
RRSRKRNAYIASQFREATGY	< -0.25
RRSRRSSRIPGYRMQCHTGR	< -0.25
RRSRVNAPERIRLV	< -0.25
RRSSDD	< -0.25
RRSTGSKIVLMTGSKVSHLT	< -0.25
RRTAPTNLLG	< -0.25
RRTFGQARGNRVLGMGL	< -0.25
RRTGVGQ	< -0.25
RRTIFGCG	0.112
RRTISNKAWFLGSRVHLGRP	< -0.25
RRTISSWCLKVRRLRGLLWN	-0.172
RRTLFVLFSHDIGAITRKCS	< -0.25
RRTPSKEGRTCCECFPSAAW	< -0.25
RRTRGDRRKAFQWGAVQ	< -0.25
RRTSPSIGNEDRG	< -0.25

Substance	growth estimate
RRV	< -0.25
RRVEL	< -0.25
RRVFNATYSLRVPCVCQQNT	< -0.25
RRVGSFTTTTFFADKHYSKR	< -0.25
RRVGYVRTVDWSHPELW	< -0.25
RRVLRYCNGICSLNLAPWP	< -0.25
RRVRGDCLIQVTIHLDGTSV	< -0.25
RRVTASGGVNRMDTANR	< -0.25
RRVTSLYRFNSSNFRPGRGI	< -0.25
RRVVLSYVARQHQSGSCGAR	< -0.25
RRWGMIESGLLSAMYDLSAP	< -0.25
RRWQRKKVSPGRMARSIGDD	< -0.25
RRWRQG	< -0.25
RRWTPKHEGDKASNGCL	< -0.25
RRYIMTVPPGDICAVQVRSA	-0.245
RRYRQRLGQRLHLA	-0.245
RRYWILRHNYRTD	< -0.25
RSACCCEWRNIGKFPRCR	< -0.25
RSALRR	< -0.25
RSAMH	< -0.25
RSCAGYPPSHGAQKL	< -0.25
RSCAKRMFD	< -0.25
RSCDVNFIVLEAIGGLLFVG	< -0.25
RSCLAVTVCYSP	< -0.25
RSCTRARTFFGLHLPQSEHT	< -0.25

Substance	growth estimate
RSCYACRKFCSYVLCSYETP	< -0.25
RSDCPHLAPRYRKPAPGEYG	< -0.25
RSDGVSGTLSRP	< -0.25
RSDLLCIRNGKYAQVKKPGS	< -0.25
RSDLPGGELNARHLIGPSLA	-0.246
RSDQALRWEPRKS	< -0.25
RSDS	< -0.25
RSDVSRI	< -0.25
RSEAREQR	-0.229
RSECPLS	< -0.25
RSEGALI	< -0.25
RSESSPYLWRLTCRTGPVLL	< -0.25
RSETSPVRRILCTCQTDRKA	< -0.25
RSEVCAASRRETRVLATWPI	< -0.25
RSFLQITSCLAPLRHLEEGV	< -0.25
RSGCCCYNVLVSVSSRPTVA	< -0.25
RSGEVLPMPSRSHASDIPLA	< -0.25
RSGGFVPGIWFKKAR	< -0.25
RSGHHSSVTSNILVIVDT	< -0.25
RSGQGVQGTDTLRMDVLRAY	< -0.25
RSGRGKKRTISKQGFNRLEG	< -0.25
RSGRRVPLTSSAYARVIDDR	< -0.25
RSGV	< -0.25
RSGVGGRAVLRV	< -0.25
RSHGYCVIGLLVRVVSMCSD	< -0.25

Substance	growth estimate
RSHSRVRISPWVA	< -0.25
RSHVVTQLHVGCFVPKAYAR	< -0.25
RSIMGCNIRPNSY	< -0.25
RSINTTKPLVRSNIENSRDW	< -0.25
RSIPVRIAGERSQMFRSLH	< -0.25
RSKCSIAIECIVNICTR	< -0.25
RSKEINVQLSWRDNTYALLV	< -0.25
RSKREDTRKAR	-0.236
RSKRSAARC	< -0.25
RSKSC	< -0.25
RSKVALFRAKNDCVLVAQDD	< -0.25
RSLCISPVRSGTPYGRRILP	< -0.25
RSLEVVNLKPSNGLSPTSPR	< -0.25
RSLII	< -0.25
RSLLSKLSAFCFEMRACLYL	< -0.25
RSLRNTTPAYISSL	< -0.25
RSLRTNLAARYGSERITTQQ	< -0.25
RSLSERPRVRFLPVLKNIRS	< -0.25
RSMDCVILWPES	0.781
RSMGSIPGVGW	< -0.25
RSMLRLRSHVAPKVRPSHLG	< -0.25
RSNGGI	< -0.25
RSPCGHAAPASLGSECDTGG	< -0.25
RSPDARK	< -0.25
RSPEISRGDREKPCPG	< -0.25

A few values from above:
For growth estimate, RSIPVRIAGERSQMFRSLH is listed with < -0.25
For growth estimate, RSKEINVQLSWRDNTYALLV is listed with < -0.25
For growth estimate, RSPCGHAAPASLGSECDTGG is listed with < -0.25
For growth estimate, RSLSERPRVRFLPVLKNIRS is listed with < -0.25
For growth estimate, RSLEVVNLKPSNGLSPTSPR is listed with < -0.25

(continued)

Substance	growth estimate
RSPGKSTRL	< -0.25
RSPLSSREACNS	< -0.25
RSPRDCSLSVPDSCRLSVAA	< -0.25
RSPRGCKPGPRFALTLRKGQ	< -0.25
RSPVTNGLFIGSLP	< -0.25
RSQAIYL	< -0.25
RSQGDEPYCSCTRTLP	< -0.25
RSQGRCRMGGGTVVGSWLH	-0.231
RSRGGSRSTGHNSRGRLTAL	< -0.25
RSRGIVWDFVVSLGSSISPQ	< -0.25
RSRIHFGL	< -0.25
RSRLVIGCSAVGSTCTTWNH	< -0.25
RSRVGLTVVF	< -0.25
RSRYCRRILQCTWCYGFGEY	< -0.25
RSSAVSEFFARLSSGRASPT	< -0.25
RSSDLWHEVMFRVLRLVGRR	< -0.25
RSSETLVEEKSASDFSKRMT	< -0.25
RSSG	< -0.25
RSSGIRARAVAVLVARRELA	< -0.25
RSSGLLERCGSQVFGRVERI	< -0.25
RSSHAGWNYGLNRPGKMGAL	< -0.25
